# From article PMC4810098
# By UniProt entry, the sequences of proteins in these tests, tags left out. Where a name states a change or a piece, a line headed by the entry shows the natural chain unless it says otherwise.
# UniProt P06709: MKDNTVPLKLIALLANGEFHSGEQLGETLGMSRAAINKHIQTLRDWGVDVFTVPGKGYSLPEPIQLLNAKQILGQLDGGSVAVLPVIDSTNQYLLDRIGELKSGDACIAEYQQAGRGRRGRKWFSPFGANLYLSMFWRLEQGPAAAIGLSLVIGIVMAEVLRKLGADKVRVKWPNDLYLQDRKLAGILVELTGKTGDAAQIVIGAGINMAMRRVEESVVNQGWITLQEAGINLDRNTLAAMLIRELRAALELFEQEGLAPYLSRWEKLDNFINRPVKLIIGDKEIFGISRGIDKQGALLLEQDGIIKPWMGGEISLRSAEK
# Results are given in words; binding and its absence hold for the method and conditions named. Binding seen in cells or lysates may run through a third protein. These calls come from enrichment with a bait or labelling near it, and not all partners need be listed. For some assays here: No binding means not detected with the bait.
# T1: BirA-R118G-NE81 (Dictyostelium discoideum) (UniProt Q54HI5)
# T1 sequence: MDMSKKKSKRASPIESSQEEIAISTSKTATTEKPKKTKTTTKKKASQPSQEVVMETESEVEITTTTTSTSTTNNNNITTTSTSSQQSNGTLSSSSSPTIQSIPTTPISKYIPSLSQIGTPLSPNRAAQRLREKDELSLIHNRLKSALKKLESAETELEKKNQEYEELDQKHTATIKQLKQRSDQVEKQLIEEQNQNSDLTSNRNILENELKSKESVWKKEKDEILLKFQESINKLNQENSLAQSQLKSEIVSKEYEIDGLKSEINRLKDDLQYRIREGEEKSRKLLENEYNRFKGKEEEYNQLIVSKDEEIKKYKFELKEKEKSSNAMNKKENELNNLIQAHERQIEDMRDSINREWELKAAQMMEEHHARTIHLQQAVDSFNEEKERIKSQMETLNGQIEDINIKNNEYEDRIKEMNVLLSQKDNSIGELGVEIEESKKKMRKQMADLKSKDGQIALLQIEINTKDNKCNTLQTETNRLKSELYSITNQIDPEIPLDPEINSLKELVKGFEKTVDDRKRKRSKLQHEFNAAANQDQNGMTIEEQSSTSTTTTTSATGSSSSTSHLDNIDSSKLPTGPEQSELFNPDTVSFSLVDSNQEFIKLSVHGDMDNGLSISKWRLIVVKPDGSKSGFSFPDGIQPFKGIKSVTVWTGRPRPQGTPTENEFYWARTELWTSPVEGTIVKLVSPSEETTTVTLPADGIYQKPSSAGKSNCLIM
# B1: NE81, endogenous (protein, UniProt Q54HI5 1-716)
# chain: T1 sequence
# Columns and labels:
# [1] = target: T1, BirA-R118G-NE81 (Dictyostelium discoideum); assay: proximity labelling; BioID in Dictyostelium cells expressing BirA-R118G-NE81 or BirA-R118G alone (control); Western blots of nuclear extracts, split lanes stained with streptavidin-CIP, anti-NE81 and anti-Src1
# BirA-R118G (E. coli) = BirA-R118G (E. coli) (UniProt P06709); assay: as above
Molecule,binding [1],binding (BirA-R118G (E. coli))
"Src1 (Dictyostelium discoideum), endogenous",binds,
B1,,no binding
